Measurements from US20150190440A1, “BLOOD PRESSURE REDUCING COMPOSITION FABRICATED BY USING MONASCUS PURPUREUS NTU 568 AND PRIMER FOR THE MONASCUS PURPUREUS NTU 568” (Sunway Biotech Co., LTD, priority 2014, published 2015).
At least one structure is not confirmed: it was looked up by name or label, or the drawing left a doubt.

How the values were obtained:
[1] = test system: Spontaneous hypertensive rats (SHRs); test: Blood pressure after one single oral administration in SHRs; format: in vivo, rat; conditions: M group: SHR, amlodipine 0.4 mgkg-1day-1, at 8 hr and 24 hr
[2] = test system: Spontaneous hypertensive rats (SHRs); test: Blood pressure in 8-week chronic administration experiment in SHRs; format: in vivo, rat; conditions: M group: SHR, amlodipine 0.4 mgkg-1day-1; during 8-week chronic administration

## CCOC(=O)C1=C(COCCN)NC(C)=C(C(=O)OC)C1c1ccccc1Cl (centres unmarked) [amlodipine]
[1]
  SBP value and DBP value compared to C group, in words: obviously decrease
[2]
  SBP value and DBP value, course in words: gradually decrease
